# Measured values as given in patent US10087466B2 (priority 2016, dated 2018).
# At least one compound was matched to its structure with a doubt left.
# Columns and labels:
# [1] = tested on: pig antioxidative function; assay: Serum antioxidative function measurement (T-AOC, GPx, SOD, MDA) with kits; format: in vivo; conditions: 0.3 mg/kg Na2SeO3 in diet
# [2] = tested on: Serum IgG and IgM; assay: Serum IgG and IgM by turbidimetric inhibition immuno assay; format: in vivo; conditions: pig serum; diet + 0.3 mg/kg Na2SeO3 or 0.14 mg/kg nanostructure
# [3] = tested on: E. cloacae Z0206; assay: Effect of sodium selenite on E. cloacae Z0206 growth (cell protein content); format: cell-based, Enterobacter cloacae; conditions: 0.5-15 mM sodium selenite in fermentation broth, 32° C.; inhibition increased with concentration; FIG. 1
smiles,measurement,setting,value
O=[Se](O)O [sodium selenite],"Antioxidative parameters (T-AOC, GPx, SOD, MDA) compared with the control group (in words)",[1],No significant difference
same,"Serum levels of IgG, IgM, TNF-α, IL-2 and IL-6 compared with the control group (in words)",[2],significantly elevated
same,Growth rate of E. cloacae Z0206 (in words),[3],significantly decreased the growth rate
